Test results taken from publication PMC8274477.

Sequences of proteins named here, by UniProt entry; tags and fusion partners are left off. A change or cut given only in a name is not applied to a line headed by its entry.
UniProt P28070: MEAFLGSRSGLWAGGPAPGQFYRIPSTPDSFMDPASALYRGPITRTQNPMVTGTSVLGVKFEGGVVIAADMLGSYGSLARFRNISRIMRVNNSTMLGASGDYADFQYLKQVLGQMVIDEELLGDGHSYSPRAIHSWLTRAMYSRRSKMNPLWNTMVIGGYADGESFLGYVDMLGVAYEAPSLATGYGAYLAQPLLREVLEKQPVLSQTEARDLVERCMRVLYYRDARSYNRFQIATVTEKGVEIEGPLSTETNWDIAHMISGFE
UniProt P18627: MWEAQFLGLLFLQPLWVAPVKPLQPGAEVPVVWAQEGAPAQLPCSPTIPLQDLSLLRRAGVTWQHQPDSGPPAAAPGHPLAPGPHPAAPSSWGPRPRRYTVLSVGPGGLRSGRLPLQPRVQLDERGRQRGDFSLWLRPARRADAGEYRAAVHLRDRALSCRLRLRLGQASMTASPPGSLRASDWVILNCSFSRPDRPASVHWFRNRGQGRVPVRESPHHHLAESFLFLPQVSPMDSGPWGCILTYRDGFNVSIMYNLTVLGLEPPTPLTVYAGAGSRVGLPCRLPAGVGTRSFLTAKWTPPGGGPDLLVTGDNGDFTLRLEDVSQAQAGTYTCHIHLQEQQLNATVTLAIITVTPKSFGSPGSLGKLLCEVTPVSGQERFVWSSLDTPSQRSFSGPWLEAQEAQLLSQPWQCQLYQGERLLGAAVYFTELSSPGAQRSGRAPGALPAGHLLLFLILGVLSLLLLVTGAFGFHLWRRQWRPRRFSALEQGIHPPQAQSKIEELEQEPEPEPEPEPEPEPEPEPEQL

Key:
Flag-HOIP (human) = Flag-HOIP (human) (UniProt Q96EP0); assay: co-IP; HEK 293T cells co-transfected with Myc-tagged candidate and Flag-HOIP or Flag-OTULIN; lysis in 50 mM Tris-HCl pH 7.4, 150 mM NaCl, 5 mM EDTA, 1% Triton X-100; protein A/G agarose, 4 C overnight; immunoblot
PSMB4 (human) = PSMB4 (human) (UniProt P28070); assay: peptide or protein array; HuProt human proteome microarray; 5 ug/5 ml biotin-labelled LUBAC or OTULIN in solution, 1 h at room temperature; Cy5-streptavidin, scanned at 635 nm; BSA as negative control; hits: Z-score >= 3 and I_(Mean_Ratio) >= 1.4; both purified

binding (Flag-HOIP (human)) | binding (PSMB4 (human)) | Substance
binds |  | Myc-LAG3-K0-S484A (from UniProt P18627) (receptor)
 | binds | OTULIN (OTU deubiquitinase with linear linkage specificity, FAM105B), His-tagged, biotin-labelled (from UniProt Q96BN8 1-352) (enzyme)
binds |  | Myc-LAG3-K0-S497A (from UniProt P18627) (receptor)

No constants are given. Whether binding was seen depends on the method and setting. A result given as binding can be weak or reduced; the word gives no strength. For part of these data: Binding seen in cells or lysates may run through a third protein.
